Results published in PubChem BioAssay AID1487 (National Center for Advancing Translational Sciences (NCATS), 2009).
Some of the results follow. These are further read-outs of the screen, such as a control signal, another cell line or another target. No call is given for them. Most of these compounds were active or inconclusive in the main read-out, so they are no random draw. Words in brackets tell the shape of the fitted curve; partial curves, single points and poor fits give uncertain potencies.

Assay: qHTS Assay for Modulators of Lamin A Splicing
Settings: HeLa LMNA splicing GFP/RFP minigene ratio, 48 h
Summary of the method: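 S3 HeLa stable clones carrying a lamin A-EGFP splicing minigene plus DsRed2 were seeded at 600 cells/well in Opti-MEM with 2% FBS, pin-dosed and incubated 48 h at 37°C. Acumen cytometry (488 nm) gave the GFP/RFP total-intensity ratio.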

[1] = measured here: RFP viability control channel
[2] = measured here: GFP splicing reporter channel

| Compound | AC50 [1] | AC50 [2] |
| --- | --- | --- |
| CCOC(=O)c1ccc(NC(=S)N2CCSC2c2c(F)cc(F)cc2F)cc1 (centres undefined) | 20 µM [rising, partial curve, poor fit] |  |
| Nc1nc(-c2ccc(Cl)cc2)nn1C(=O)c1cccs1 |  | 0.01 µM [falling, full curve, poor fit] |
| CC(C)CNC(=O)Nc1ccccc1F | 0.00501 µM [falling, full curve, poor fit] |  |
| CC1CC[C@@]2(C(=O)O)CC[C@]3(C)C(=CCC4[C@@]5(C)CCC(O)C(C)(C)C5CC[C@@]43C)C2C1C (some centres undefined) | 15.8 µM [rising, single point] | 12.6 µM [rising, single point] |
| CN=C(NC#N)NCCSC[C@H]1N=CN=C1C | 0.282 µM [falling, full curve, poor fit] | 0.251 µM [falling, partial curve] |
| COc1cccc(CNC(=O)C(=O)NCC(c2ccco2)S(=O)(=O)c2ccccc2)c1 (centres undefined) |  | 2 µM [falling, full curve, poor fit] |
| CCn1c2ccccc2c2cc(/C=N/NC(=O)c3ccccc3)ccc21 | 8.91 µM [falling, partial curve] | 7.08 µM [falling, partial curve] |
| Cc1nn(-c2ccccc2)c2c1P(=O)(O)/C(=C1\N(C)c3ccccc3C1(C)C)C=N2 |  | 12.6 µM [rising, single point] |
| Oc1cccc2c(NC(=S)Nc3ccc(OC(F)F)cc3)cccc12 | 2.51 µM [rising, full curve, poor fit] | 1.58 µM [rising, partial curve, poor fit] |
| CC1CCN(c2c(NCC3CCC(C(=O)NCCc4ccccc4)CC3)c(=O)c2=O)CC1 (centres undefined) |  | 0.794 µM [falling, single point] |
| CCOC(=O)/C(C#N)=N/Nc1ccc(S(=O)(=O)N2CCc3ccccc32)cc1 | 11.2 µM [rising, partial curve] | 3.55 µM [rising, single point] |
| CCCCNC(=O)CSc1nc2cc3c(cc2c(=O)n1Cc1ccc(C(=O)NCCc2ccc(OC)c(OC)c2)cc1)OCO3 | 14.1 µM [rising, partial curve, poor fit] | 22.4 µM [rising, partial curve] |
| CC(C)N(Cc1nc(-c2ccc(Cl)cc2)no1)C(=O)C(c1ccccc1)c1ccccc1 | 12.6 µM [rising, single point] | 12.6 µM [rising, single point] |
| CN(C)c1nc(SCc2ccc(Cl)cc2)nc2c1CCCC2 | 12.6 µM [rising, partial curve] |  |
| CN(C)c1cccc2c1C(=O)c1ccccc1C2=O | 14.1 µM [rising, partial curve, poor fit] |  |
| CCOc1cc(CNCc2cccnc2)ccc1OCC(=O)NC(C)(C)C |  | 0.447 µM [rising, full curve, poor fit] |
| COc1ccc(-c2cc3ccc(O)c(CN4CCCC(C)C4)c3oc2=O)cc1OC (centres undefined) |  | 0.316 µM [falling, full curve, poor fit] |
| CC1=C(c2ccc(C(C)C)cc2)S(=O)(=O)N=C1N1CCC(C(=O)Nc2ccc(C)cc2)CC1 | 25.1 µM [falling, partial curve] | 35.5 µM [falling, single point] |
| O=C(CSc1nc2ccccc2s1)Nc1cc(S(=O)(=O)N2CCOCC2)ccc1O | 10 µM [rising, single point] |  |
| Cc1c(C(=O)NCc2ccc3c(c2)OCO3)oc2ccc(S(=O)(=O)N3CCCCCC3)cc12 | 12.6 µM [rising, partial curve] | 15.8 µM [rising, partial curve] |
| CC1(C)N=C(SCc2ccc(Cl)cc2)c2ccccc2N1 | 1.12 µM [rising, full curve, poor fit] |  |
| CCn1c2ccccc2c2cc(NC(=O)c3ccco3)ccc21 | 14.1 µM [rising, single point] | 12.6 µM [rising, single point] |
| O=C(NCCc1ccccc1)C(=O)NCC(c1cccs1)S(=O)(=O)c1cccs1 (centres undefined) | 2.82 µM [falling, partial curve] |  |
| Clc1ccc2nnnc(-c3ccccc3)c2c1 | 3.16 µM [rising, single point] | 12.6 µM [rising, partial curve] |
| O=C1NC(=O)/C(=C\c2ccc(Oc3ccc([N+](=O)[O-])cn3)cc2)S1 | 15.8 µM [rising, single point] |  |
| COc1ccc(/C=C/C(=O)C23CC4CC(CC(C4)C2)C3)cc1CN1CCOCC1 | 12.6 µM [falling, partial curve] | 22.4 µM [falling, single point] |
| COc1ccc(NC(=O)Cn2c(=O)n(-c3ccccc3)c(=O)c3oc4ccccc4c32)c(OC)c1 |  | 0.0282 µM [rising, full curve, poor fit] |

3 successive entries already listed, for reference:

| Compound | AC50 [1] | AC50 [2] |
| --- | --- | --- |
| Nc1nc(-c2ccc(Cl)cc2)nn1C(=O)c1cccs1 |  | 0.01 µM [falling, full curve, poor fit] |
| CC(C)CNC(=O)Nc1ccccc1F | 0.00501 µM [falling, full curve, poor fit] |  |
| CC1CC[C@@]2(C(=O)O)CC[C@]3(C)C(=CCC4[C@@]5(C)CCC(O)C(C)(C)C5CC[C@@]43C)C2C1C (some centres undefined) | 15.8 µM [rising, single point] | 12.6 µM [rising, single point] |

Next compounds follow:

| Compound | AC50 [1] | AC50 [2] |
| --- | --- | --- |
| COc1ccc(C(=O)/C=C/Nc2ccc(S(=O)(=O)Nc3nc(C)cc(C)n3)cc2)cc1OC | 10 µM [rising, partial curve, poor fit] |  |
| Cc1ccc(Cl)cc1NC(=O)CN1C=NS(=O)(=O)c2ccccc21 |  | 14.1 µM [rising, partial curve] |
| CCOC(=O)c1cnc2c(OC)cccc2c1N1CCN(c2ccccn2)CC1 |  | 3.98 µM [falling, partial curve, poor fit] |
| O=c1c2ccccc2nc(SCc2ccccc2)n1Cc1ccco1 | 31.6 µM [rising, single point] | 22.4 µM [rising, single point] |
| C/C(=N/OCO/N=C(\C)c1ccccc1)c1ccccc1 | 17.8 µM [rising, single point] |  |
| CCC(=O)N1CCCc2cc(S(=O)(=O)N3CCCc4ccccc43)ccc21 | 7.94 µM [rising, single point] |  |
| COc1cc(NC(=O)C2CCCN(c3ncccn3)C2)cc(OC)c1 (centres undefined) | 12.6 µM [rising, single point] |  |
| CC(C)NC(=O)CSc1nnc(-c2ccc(C(C)(C)C)cc2)n1C | 11.2 µM [rising, partial curve, poor fit] |  |
| CC1(C)CC(=O)C2=C(C1)N(Cc1cccnc1)C(=O)C2(NC(=O)c1ccc(F)cc1)C(F)(F)F (centres undefined) | 35.5 µM [rising, single point] |  |
| CCN(C(=O)c1ccco1)c1nc(CC(=O)Nc2ccc(Cl)cc2)cs1 | 12.6 µM [rising, partial curve] | 2 µM [rising, partial curve, poor fit] |
| COc1ccc(Br)cc1C(=O)Nc1ccccc1N1CCN(C(=O)c2ccccc2)CC1 |  | 11.2 µM [rising, partial curve, poor fit] |
| Cn1c(-c2c(N)n(CCc3ccccc3)c3nc4ccccc4nc23)nc2ccccc21 | 31.6 µM [rising, single point] |  |
| NC(=O)NC(=O)Cc1ccccc1 | 0.000891 µM [rising, full curve, poor fit] |  |
| COc1ccc(C(=O)Nc2cc(OC)c(Cl)cc2Cl)cc1 | 0.0112 µM [rising, full curve, poor fit] | 0.0316 µM [rising, full curve, poor fit] |
| Cc1ccc(S(=O)(=O)N(CCO)Cc2cc3ccc(C)c(C)c3[nH]c2=O)cc1 |  | 5.62 µM [rising, partial curve] |
| CN(C)/N=C/c1ccc(Sc2ccccc2[N+](=O)[O-])o1 | 7.94 µM [rising, partial curve, poor fit] | 5.62 µM [rising, full curve, poor fit] |
| COc1ccccc1-n1c(-c2ccccc2)c[n+]2c1CCc1ccccc1-2 | 35.5 µM [rising, single point] | 6.31 µM [falling, partial curve] |
| Cc1ccc(-c2noc(-c3ccccc3C(=O)N3CCCC3)n2)cc1 | 15.8 µM [rising, single point] |  |
| COc1cc(C(=O)NCc2ccc3c(c2)CCN3C(=O)c2ccc(Cl)cc2)cc(OC)c1OC |  | 14.1 µM [falling, single point] |
| Cc1ccc(NC(=O)CSc2nc(=O)n(Cc3ccccn3)c3c2CCC3)cc1F | 0.794 µM [falling, full curve, poor fit] | 20 µM [falling, partial curve, poor fit] |
| O=C(/C=C/c1ccc(Br)o1)NC(c1ccccc1)c1ccccc1 | 14.1 µM [rising, single point] |  |
| O=C(NN1CCN(Cc2ccccc2Cl)CC1)c1ccc(Cl)cc1 | 8.91 µM [rising, partial curve, poor fit] |  |
| Cc1cccc2sc(NC(=O)Cn3cccc3)nc12 | 15.8 µM [rising, single point] |  |
| COC(=O)c1cc(=O)c2c([N+](=O)[O-])ccc(OC)c2o1 | 2.51 µM [falling, partial curve] |  |
| Cc1cccc(Oc2cc([N+](=O)[O-])cc3c2C(=O)Nc2ccccc2O3)c1 | 11.2 µM [rising, partial curve] | 1 µM [rising, partial curve] |
| CCOC(=O)c1[nH]c(C)c(C(=O)N2CCN(c3ccccc3)CC2)c1C | 1.12 µM [rising, partial curve] | 4.47 µM [rising, full curve, poor fit] |
| Cc1ccc(S(=O)(=O)NC(=O)c2ccc(Br)o2)c(C)c1 | 35.5 µM [falling, single point] |  |
